The values below come from patent US4076702A, “Dipeptide derivatives and their production” (Shionogi & Co., Ltd., priority 1974, dated 1978).

The structures appear in SMILES notation.

The test system of the data set is DS male mice. The note with it: oral single dose, observed 72 hours, Bliss method.

For `CN1C(=O)CN=C(c2ccccc2)c2cc(Cl)ccc21` [Compound No. 5, Diazepam, reference compound], the “Acute toxicity LD50” value is reported as 1459 mg/kg.
